The assay deals with HEK293A TEAD-LUC reporter. The experiment in a line: TEAD-luciferase reporter activity (YAP activation), robust Z score vs plate; higher = stronger YAP/TEAD activation. The conditions noted are these: 24 h. (A reporter such as luciferase makes a cellular process visible.)

The source of these data is the supplement of paper PMC10735217.

Structures can show the parent of a compound that is named as a salt. The list shows a part of the results. This data set is noisy: repeats of one test often differ as much as different tests do.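 Human kidney-derived cells stably carry a construct in which eight TEAD-binding elements drive luciferase, measured by luminescence in a drug-repurposing library screen. A hit is any compound whose signal exceeds the plate mean by more than five robust Z scores.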

As for `O=C(O)C1N=C(c2ccccc2)c2cc(Cl)ccc2NC1=O` (stereo unspecified) [Clorazepate dipotassium], the TEAD-luciferase reporter activity was inactive: 0.681 (compound concentration: 200 nM) and inactive: 2.11 (compound concentration: 10 uM).

With `CCCN1CCO[C@@H]2c3cc(O)ccc3CC[C@H]21` [Naxagolide hydrochloride], the TEAD-luciferase reporter activity runs as follows: (compound concentration: 200 nM) inactive: -3.42; (compound concentration: 2 uM) inactive: -1.47; (compound concentration: 10 uM) inactive: -1.72.

With `CCCCC/C=C\C/C=C\C/C=C\C/C=C\CCCC(=O)NCCO`, the TEAD-luciferase reporter activity was inactive: -0.222 (compound concentration: 200 nM), inactive: 0.0928 (compound concentration: 2 uM) and inactive: 1.91 (compound concentration: 10 uM).

Take `CCCCCCCc1cc(O)c(C/C=C(\C)CCC=C(C)C)c(O)c1` [Cannabigerol dimethylheptyl]: the TEAD-luciferase reporter activity is inactive: -1.59 (compound concentration: 200 nM), inactive: -0.0499 (compound concentration: 2 uM) and inactive: 0.615 (compound concentration: 10 uM).

For `C[C@]12CCC3C(CC[C@H]4C[C@@H](O)CC[C@]34C)[C@@H]1C[C@@H](Br)C2=O` (stereo partly specified), the TEAD-luciferase reporter activity runs as follows: (compound concentration: 200 nM) inactive: -0.87; (compound concentration: 2 uM) inactive: 1.66; (compound concentration: 10 uM) inactive: 0.237.

Take `C[C@H](Cc1c[nH]c2c(OCC(=O)O)cccc12)NC[C@H](O)c1cccc(Cl)c1` [Rafabegron]: the TEAD-luciferase reporter activity by setting is: (compound concentration: 200 nM) inactive: -2.96; (compound concentration: 2 uM) inactive: -0.6; (compound concentration: 10 uM) inactive: 0.779.

As for `C=CCC1(CC(=C)Br)C(=O)NC(=O)NC1=O`, the TEAD-luciferase reporter activity reads like this: (compound concentration: 200 nM) inactive: 0.921; (compound concentration: 2 uM) inactive: -0.0744; (compound concentration: 10 uM) inactive: 3.42.

On to `CC(C)(C)NC[C@@H](O)c1ccc(F)cc1F`, for which the TEAD-luciferase reporter activity was inactive: 0.262 (compound concentration: 200 nM), inactive: -1.54 (compound concentration: 2 uM) and inactive: -0.0262 (compound concentration: 10 uM).

In the case of `CCN1CCC2CN(C)CCN2C1=O` (stereo unspecified) [Centperazine], the TEAD-luciferase reporter activity (compound concentration: 200 nM) is inactive: -0.653, the TEAD-luciferase reporter activity (compound concentration: 2 uM) was inactive: -0.742 and the TEAD-luciferase reporter activity (compound concentration: 10 uM) is inactive: 0.292.

For `Cc1nnc2n1-c1sc3c(c1C(c1ccccc1Cl)=NC2C)CCN(C(=O)C1CC1)C3` (stereo unspecified), the TEAD-luciferase reporter activity is, setting by setting: (compound concentration: 200 nM) inactive: -1.11; (compound concentration: 2 uM) inactive: -0.91; (compound concentration: 10 uM) inactive: 0.498.

Consider `COc1cccc(C(=O)N2CCCC2C(=O)N2CCC(N3CCCC3=O)CC2)c1` (stereo unspecified), for which the TEAD-luciferase reporter activity was inactive: 2.13 (compound concentration: 200 nM) and inactive: 1.13 (compound concentration: 10 uM).

Consider `CC(=O)Oc1ccc(CC(C(=O)O[C@H]2C[C@H]3CC[C@@H](C2)N3C)c2ccccc2)cc1` (stereo partly specified), for which the TEAD-luciferase reporter activity is inactive: 0.959 (compound concentration: 200 nM), inactive: 0.148 (compound concentration: 2 uM) and inactive: -1.1 (compound concentration: 10 uM).

As for `COC1=C[C@@H]2[C@@H]3Cc4ccc(OC)c(O)c4[C@]2(CCN3C)CC1=O`, the TEAD-luciferase reporter activity was inactive: 0.122 (compound concentration: 200 nM), inactive: -0.458 (compound concentration: 2 uM) and inactive: -0.593 (compound concentration: 10 uM).

For `CC(C)=CCN(c1ccc(CCC(C)(C)C)cc1)C1CCN(Cc2ccc(N(C)C)cc2)CC1`, the TEAD-luciferase reporter activity is inactive: 0.594 (compound concentration: 200 nM), inactive: 2.62 (compound concentration: 2 uM) and active: 5.73 (compound concentration: 10 uM).

Regarding `CC(=O)O[C@H]1[C@@H](OC(C)=O)C[C@H](O[C@H]2[C@@H](OC(C)=O)C[C@H](O[C@H]3[C@@H](OC(C)=O)C[C@H](O[C@H]4CC[C@@]5(C)[C@H](CC[C@@H]6[C@@H]5C[C@@H](OC(C)=O)[C@]5(C)[C@@H](C7=CC(=O)OC7)CC[C@]65O)C4)O[C@@H]3C)O[C@@H]2C)O[C@@H]1C` [Digoxin, Derivative of], the TEAD-luciferase reporter activity reads like this: (compound concentration: 200 nM) inactive: -0.492; (compound concentration: 2 uM) inactive: 1.37; (compound concentration: 10 uM) inactive: 4.38.

Take `O=c1c2cccc3c2c(cn1C1CN2CCC1CC2)CCC3` (stereo unspecified): the TEAD-luciferase reporter activity reads like this: (compound concentration: 200 nM) inactive: -1.63; (compound concentration: 2 uM) inactive: 1.13; (compound concentration: 10 uM) inactive: -0.396.

For the molecule `CN1[C@H]2C[C@H](OC(=O)[C@H](CO)c3ccccc3)C[C@@H]1[C@@H](O)C2` [Anisodamine], the TEAD-luciferase reporter activity (compound concentration: 200 nM) was inactive: -0.236, the TEAD-luciferase reporter activity (compound concentration: 2 uM) was inactive: 0.586 and the TEAD-luciferase reporter activity (compound concentration: 10 uM) was active: 5.46.

On to `O=C(O)CNC(=O)C1C(=O)N(C2CCCCC2)C(=O)N(C2CCCCC2)C1=O` [Daprodustat], for which the TEAD-luciferase reporter activity reads like this: (compound concentration: 200 nM) inactive: -1.29; (compound concentration: 2 uM) inactive: -1.27; (compound concentration: 10 uM) inactive: 0.303.

For the molecule `O=S(=O)(O)[O][Pt]1([OH])[NH][C@@H]2CCCC[C@H]2[NH]1`, the TEAD-luciferase reporter activity (compound concentration: 200 nM) is inactive: 0.289, the TEAD-luciferase reporter activity (compound concentration: 2 uM) was inactive: -0.315 and the TEAD-luciferase reporter activity (compound concentration: 10 uM) is inactive: -1.01.

Take `COc1cc2c(cc1OC)-c1c(OC)c(OC)cc3c1[C@H](C2)N(C)CC3` [glaucine]: the TEAD-luciferase reporter activity runs as follows: (compound concentration: 200 nM) inactive: -1.87; (compound concentration: 2 uM) inactive: -1.46; (compound concentration: 10 uM) inactive: -0.00582.

Consider `COc1ccc(CCN2CCC(Nc3nc4ccccc4n3Cc3ccc(F)cc3)CC2)cc1` [astemizole], for which the TEAD-luciferase reporter activity runs as follows: (compound concentration: 200 nM) inactive: 0.245; (compound concentration: 2 uM) inactive: 1.23; (compound concentration: 10 uM) inactive: 2.74.

On to `Cc1c[nH]c2c1[C@@]13C[C@@H]1CN(C(=O)c1cc4cc(NC(=O)c5cc6ccccc6o5)ccc4[nH]1)C3=CC2=O`, for which the TEAD-luciferase reporter activity (compound concentration: 200 nM) was active: 6.44, the TEAD-luciferase reporter activity (compound concentration: 2 uM) was inactive: -1.02 and the TEAD-luciferase reporter activity (compound concentration: 10 uM) was inactive: -1.07.

For `CCc1c(C(=O)C(N)=O)c2c(OCC(=O)OC)cccc2n1Cc1ccccc1` [Varespladib methyl], the TEAD-luciferase reporter activity runs as follows: (compound concentration: 200 nM) inactive: 1.34; (compound concentration: 2 uM) inactive: -1.25; (compound concentration: 10 uM) inactive: 0.303.

As for `COP(=S)(OC)SCN1C(=O)c2ccccc2C1=O`, the TEAD-luciferase reporter activity runs as follows: (compound concentration: 200 nM) inactive: -0.441; (compound concentration: 2 uM) inactive: 3; (compound concentration: 10 uM) active: 7.78.

For `CC1Cc2cc3c(cc2C(c2ccc(N)cc2)=NN1)OCO3` (stereo unspecified), the TEAD-luciferase reporter activity reads like this: (compound concentration: 200 nM) inactive: -0.285; (compound concentration: 2 uM) inactive: -0.282; (compound concentration: 10 uM) inactive: 1.85.

Regarding `CCCCCCN1CCC(C(=O)N(C)CC)(c2ccccc2)CC1`, the TEAD-luciferase reporter activity (compound concentration: 200 nM) was inactive: 0.642, the TEAD-luciferase reporter activity (compound concentration: 2 uM) was inactive: 0.91 and the TEAD-luciferase reporter activity (compound concentration: 10 uM) is inactive: 1.42.

For the molecule `O=C(C1CCCN1C(=O)Cc1ccc(F)cc1)N1CCC(N2CCOCC2=O)CC1` (stereo unspecified), the TEAD-luciferase reporter activity was inactive: -0.00746 (compound concentration: 200 nM) and inactive: -1.35 (compound concentration: 10 uM).

For `CN1CCN=C(c2ccccc2)c2cc(Cl)ccc21` [Medazepam], the TEAD-luciferase reporter activity runs as follows: (compound concentration: 200 nM) inactive: 0.243; (compound concentration: 2 uM) inactive: -0.772; (compound concentration: 10 uM) inactive: 0.186.
